Data reported in patent EP0190464A2, “Novel anti-cancer drugs” (YEDA RESEARCH AND DEVELOPMENT COMPANY LIMITED, priority 1984, dated 1986).
At least one structure is not confirmed: it was looked up by name or label, or the drawing left a doubt.

Test system: 38C-13 tumor cells
Experiment: Inhibition of DNA synthesis ([3H]-methylthymidine incorporation)
Type: cell-based, murine
Settings: 21 hr at 37°C with drug, then 3 hr [3H]-methylthymidine pulse; Fig. 2
Protocol: Inhibition of DNA synthesis by the free platinum compounds of their complexes was determined as follows. Tumor cells (2-5 x 10^4/0.1 ml) suspended in their suitable grwoth media were dispersed into wells of microtiter plates. The Platinum compounds or complexes were added to the cells in […] aliquots. The plates were incubated for 21 hr at 37 °C in a humidified atmosphere of 5% CO2 in air. At that time 10 µl containing 0.5 µci of [^3H]-methylthymidine were added to each well and the plates were incubated for 3 hr as above. The reaction was terminated using a Titerteck cell harvester.
Pt complexes used in the in vitro and in vivo experiments were prepared under conditions of maximal binding, that is, 98-100% binding of the free drugs. In vivo experiments were performed with cis-Pt and cis-aq complexes. […] Cis-Pt and cis-aq complexes of dex-NH2 were tested and found to be active in vitro against 5 murine tumors (EL-4, 38-C13, L1210, RDM and F-9) and 2 human derived tumors (Hela and Osteosarcoma). […] This activity was lost, however upon exhaustive dialysis.

N.N.O.O.O=[N+]([O-])[O-].O=[N+]([O-])[O-].[Pt+2] [cis-aq, diaquodiammine Platinum (II)-nitrate]
50% inhibition of DNA synthesis: 0.8-1 x 10^-6
